From publication PMC10794144, “A novel antibiotic class targeting the lipopolysaccharide transporter” (Nature, 2024)

System: A. baumannii
Settings: A. baumannii ATCC19606, MHB, maximum over all reactors and samples

CN1C(=O)[C@H](CCCCN)NC(=O)[C@H](CCCN)NCc2cccnc2Sc2cccc(-c3ccc(C(=O)O)cc3)c2CNC(=O)[C@@H]1Cc1c[nH]c2ccccc12 [zosurabalpin]
MAX≥10% abundance of sequence variant lptF:Arg322Cys: 98% | MAX≥10% abundance of sequence variant lptF:Arg322Ser: 61% | MAX≥10% abundance of sequence variant lptF:Glu58Gly: 62% | MAX≥10% abundance of sequence variant lptF:Lys320Glu: 83% | MAX≥10% abundance of sequence variants csu: (all events): 94%
